The experiment can be described thus: qHTS Assay for Modulators of Lamin A Splicing. As to conditions: HeLa LMNA splicing GFP/RFP minigene ratio, 48 h. The method in brief: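 Read-out is the ratio of GFP to DsRed2 object intensity, acquired by 488 nm laser-scanning cytometry on HeLa lamin A-EGFP minigene reporter cells. Compound incubation 48 hrs at 37 °C in Opti-MEM with 2% FBS; DMSO 0.5% final.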
For orientation: In qHTS, concentration-response curves come from the screen itself.

Setting [1] is: measured here: GFP splicing reporter channel.
Where [2] appears, read: measured here: RFP viability control channel.

The list shows a part of the results. Further columns of the screen follow, without active or inactive calls. Most of these compounds were active or inconclusive in the main read-out, so they are no random draw. Words in brackets tell the shape of the fitted curve; partial curves, single points and poor fits give uncertain potencies.

As to `O=C(Nc1ccc(Cl)cc1)c1csc(Cc2ccccc2)n1`, under setting [1], the AC50 was 17.8 µM [falling, partial curve, poor fit]. Regarding `O=C(COC(=O)CC1CC2CCC1C2)Nc1cc([N+](=O)[O-])ccc1F` (stereo not given), the AC50 under setting [2] is 0.708 µM [rising, full curve, poor fit]. On to `Cn1nc(C(F)(F)F)c(C#N)c1N1CCN(c2ccccc2)CC1`, for which, under setting [2], the AC50 was 12.6 µM [rising, partial curve, poor fit]. Consider `O=C(CCC(=O)N1CCN(S(=O)(=O)c2ccc(Cl)cc2)CC1)Nc1ccc2ccccc2c1`, for which the AC50 under setting [2] was 25.1 µM [rising, single point]. On to `O=C1C(c2ccc(F)cc2)N(Cc2ccc3c(c2)OCO3)C(=O)CN1C1CCCC1` (stereo not given), for which the AC50 under setting [1] was 11.2 µM [rising, partial curve, poor fit]. Regarding `COc1cccc(C(=O)N2CCN(C(=O)c3ccc(-c4ccccc4)cc3)CC2)c1OC`, the AC50 runs as follows: under setting [1], 35.5 µM [falling, single point]; under setting [2], 35.5 µM [falling, single point].

As for `Cc1c(/C=N/NC(=O)c2ccc(O)cc2)c2ccccn2c1C(=O)c1ccc(F)cc1`, the AC50 is 35.5 µM [rising, single point] under setting [1] and 35.5 µM [rising, partial curve] under setting [2]. As for `O=c1cnc2cncnc2n1Cc1ccc(F)cc1`, the half-maximal activity concentration (AC50) was 3.98 µM [falling, full curve] under setting [1] and 3.98 µM [falling, full curve] under setting [2]. `Cc1[nH]c(=O)[nH]c(=O)c1S(=O)(=O)N1CCN(c2cccc(Cl)c2)CC1`: under setting [2], the AC50 was 0.0562 µM [falling, full curve, poor fit]. Take `Cc1cccc(Cn2cc(C(=O)Nc3ccc(S(N)(=O)=O)cc3)ccc2=O)c1`: the AC50 is, setting by setting: under setting [1], 11.2 µM [falling, partial curve]; under setting [2], 0.891 µM [falling, full curve]. In the case of `COc1cccc(N2CCN(c3c4c(nc5ncnn35)CCC4)CC2)c1`, the AC50 reads like this: under setting [1], 12.6 µM [rising, partial curve]; under setting [2], 10 µM [rising, partial curve]. `COC(=O)c1c(NC(=O)CN2CCC3(O)CCCCC3C2c2cc(OC)ccc2OC)sc(C)c1C` (stereo not given): the AC50 under setting [1] is 8.91 µM [rising, partial curve] and the AC50 under setting [2] is 14.1 µM [rising, partial curve].

As to `COc1ccc(Cl)cc1NC(=O)N1CCC(CN2CCCCCC2)CC1`, the AC50 under setting [2] is 7.08 µM [falling, partial curve, poor fit]. For `CSc1cccc(NC(=O)Cn2cnc(S(=O)(=O)N3CCCC3)c2)c1`, the AC50 under setting [2] is 12.6 µM [rising, partial curve, poor fit].

Consider `O=C(Nc1ccccc1OCc1cc(=O)n2ccccc2n1)c1ccccc1F`, for which the AC50 under setting [2] was 0.0251 µM [rising, full curve, poor fit]. Turning to `Cc1ccc(C(=O)NC(NC(=S)Nc2ccc(S(N)(=O)=O)cc2)C(Cl)(Cl)Cl)cc1` (stereo not given), under setting [2], the AC50 is 35.5 µM [rising, single point].

On to `O=C(NCc1ccc2c(c1)OCO2)C1CCCN(S(=O)(=O)c2cccc3cccnc23)C1` (stereo not given), for which the AC50 under setting [2] was 14.1 µM [rising, single point]. As for `CC(=O)N1c2ccc(Cl)cc2C2C=CCC2C1c1cccc2ccccc12` (stereo not given), the AC50 runs as follows: under setting [1], 15.8 µM [falling, partial curve, poor fit]; under setting [2], 14.1 µM [falling, partial curve, poor fit]. Consider `CCOC(=O)c1c(C)nc(-c2ccccc2)nc1NC(C)=O`, for which the AC50 under setting [2] is 7.08 µM [rising, partial curve, poor fit].

`Cc1cccc(Nc2nc(NCc3ccco3)c3ccccc3n2)c1`: the AC50 is, setting by setting: under setting [1], 2 µM [rising, partial curve]; under setting [2], 3.55 µM [rising, partial curve]. On to `Cc1ccc(OCC(=O)Nc2ccc(N3CCN(C(=O)c4ccco4)CC3)cc2)cc1C`, for which the AC50 is 10 µM [falling, partial curve] under setting [1] and 1.41 µM [falling, full curve] under setting [2]. For `COC(=O)CSc1nc(C)cc(C)n1`, the AC50 under setting [1] was 3.16 µM [rising, partial curve, poor fit]. As for `Cc1ccc2cccc(OCCOCCOc3ccccc3Br)c2n1`, the AC50 was 15.8 µM [rising, single point] under setting [1] and 14.1 µM [rising, single point] under setting [2]. With `Cc1sc2ncnc(Sc3nnnn3-c3ccccc3)c2c1C`, the AC50 under setting [2] is 12.6 µM [rising, partial curve]. `CN(C)C(=O)c1ccc2c(c1)C1C3CCC(C3)C1C(c1ccccc1)N2` (stereo not given): the AC50 was 35.5 µM [rising, single point] under setting [1] and 35.5 µM [rising, single point] under setting [2]. With `Cc1nc(NCC2CCCO2)c2nnn(Cc3ccccc3)c2n1` (stereo not given), the AC50 runs as follows: under setting [1], 14.1 µM [rising, partial curve]; under setting [2], 22.4 µM [rising, single point]. With `COc1cc2c(cc1OC)CN(c1ccc([N+](=O)[O-])cc1C#N)CC2`, the AC50 under setting [2] was 11.2 µM [rising, partial curve]. Same read-out and setting: the same measure for `CCN(CC)C(=O)c1cc2c(=O)n3cccc(C)c3nc2n1C`: 8.91 µM [rising, partial curve, poor fit]; for `CCOC(=O)c1sc(Nc2ccc(F)cc2)nc1C`: 0.398 µM [falling, full curve, poor fit]. Consider `Cc1nc2ccccn2c1C(=O)/C=C/c1cccc([N+](=O)[O-])c1`, for which, under setting [1], the AC50 is 5.62 µM [falling, partial curve]. As to `Cc1ccc(Nc2nc3nonc3[nH]c2=O)cc1C`, the concentration at half-maximal activity (AC50) under setting [2] is 35.5 µM [rising, single point]. Take `NC(N)=N/N=C/c1ccc(OCc2ccccc2)cc1`: the AC50 is, setting by setting: under setting [1], 7.94 µM [rising, partial curve, poor fit]; under setting [2], 12.6 µM [rising, partial curve]. Turning to `Cc1ccc(CNC(=O)c2cc(Sc3ccc(F)cc3F)nc3ccccc23)cc1`, the AC50 is 6.31 µM [rising, partial curve, poor fit] under setting [1] and 1 µM [rising, full curve, poor fit] under setting [2].

Consider `C=CCn1c(SCC(C)=O)nnc1-c1cc(-c2ccccc2)sc1N`, for which, under setting [2], the AC50 is 35.5 µM [rising, single point]. `COC(=O)C1=C(C)N(Cc2ccc(C)cc2)C(=O)/C1=C\c1cc(OC)c(OC)c(OC)c1`: the AC50 reads like this: under setting [1], 35.5 µM [falling, single point]; under setting [2], 11.2 µM [falling, single point].

The AC50 is the concentration at which the activity in the assay is half-maximal.

(Values after PubChem BioAssay AID1487 (National Center for Advancing Translational Sciences (NCATS), 2009).)
